In article PMC7136964:
Results are given in words; binding and its absence hold for the method and conditions named. In cells and extracts the contact can be indirect. Some results given as binding are weak or reduced against the parent protein; the word gives no strength. Values belong to the molecule of their own block, whether it stands above or below them.

Amino acid sequences for entries named in this document (tags omitted).
UniProt Q96RU2: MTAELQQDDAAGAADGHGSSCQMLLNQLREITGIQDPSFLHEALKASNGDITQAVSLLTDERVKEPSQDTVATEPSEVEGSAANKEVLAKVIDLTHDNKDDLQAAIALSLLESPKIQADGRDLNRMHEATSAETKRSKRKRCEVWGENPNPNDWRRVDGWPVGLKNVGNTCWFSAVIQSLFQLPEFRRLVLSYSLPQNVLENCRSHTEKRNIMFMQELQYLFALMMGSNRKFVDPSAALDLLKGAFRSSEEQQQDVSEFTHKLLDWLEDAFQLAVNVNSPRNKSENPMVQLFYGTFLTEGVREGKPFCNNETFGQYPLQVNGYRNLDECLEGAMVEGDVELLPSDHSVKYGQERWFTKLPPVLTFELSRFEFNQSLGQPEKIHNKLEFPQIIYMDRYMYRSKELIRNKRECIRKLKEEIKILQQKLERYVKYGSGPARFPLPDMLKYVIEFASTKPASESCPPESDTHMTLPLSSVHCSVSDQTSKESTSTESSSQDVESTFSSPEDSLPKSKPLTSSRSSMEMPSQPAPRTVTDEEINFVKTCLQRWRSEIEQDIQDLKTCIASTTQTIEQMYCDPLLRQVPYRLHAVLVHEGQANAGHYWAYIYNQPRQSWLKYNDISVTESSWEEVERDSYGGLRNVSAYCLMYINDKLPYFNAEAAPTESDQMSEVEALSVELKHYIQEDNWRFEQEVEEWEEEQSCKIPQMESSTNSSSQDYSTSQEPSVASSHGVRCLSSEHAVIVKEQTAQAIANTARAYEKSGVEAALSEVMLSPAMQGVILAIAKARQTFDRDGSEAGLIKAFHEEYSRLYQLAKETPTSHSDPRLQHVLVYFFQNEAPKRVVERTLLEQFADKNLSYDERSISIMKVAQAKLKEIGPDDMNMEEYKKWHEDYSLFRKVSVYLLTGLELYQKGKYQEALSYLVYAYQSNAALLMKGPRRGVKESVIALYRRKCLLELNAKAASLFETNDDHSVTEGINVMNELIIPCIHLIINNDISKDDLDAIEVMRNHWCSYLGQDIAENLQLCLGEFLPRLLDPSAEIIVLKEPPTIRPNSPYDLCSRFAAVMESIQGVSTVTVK
UniProt Q9UHP3: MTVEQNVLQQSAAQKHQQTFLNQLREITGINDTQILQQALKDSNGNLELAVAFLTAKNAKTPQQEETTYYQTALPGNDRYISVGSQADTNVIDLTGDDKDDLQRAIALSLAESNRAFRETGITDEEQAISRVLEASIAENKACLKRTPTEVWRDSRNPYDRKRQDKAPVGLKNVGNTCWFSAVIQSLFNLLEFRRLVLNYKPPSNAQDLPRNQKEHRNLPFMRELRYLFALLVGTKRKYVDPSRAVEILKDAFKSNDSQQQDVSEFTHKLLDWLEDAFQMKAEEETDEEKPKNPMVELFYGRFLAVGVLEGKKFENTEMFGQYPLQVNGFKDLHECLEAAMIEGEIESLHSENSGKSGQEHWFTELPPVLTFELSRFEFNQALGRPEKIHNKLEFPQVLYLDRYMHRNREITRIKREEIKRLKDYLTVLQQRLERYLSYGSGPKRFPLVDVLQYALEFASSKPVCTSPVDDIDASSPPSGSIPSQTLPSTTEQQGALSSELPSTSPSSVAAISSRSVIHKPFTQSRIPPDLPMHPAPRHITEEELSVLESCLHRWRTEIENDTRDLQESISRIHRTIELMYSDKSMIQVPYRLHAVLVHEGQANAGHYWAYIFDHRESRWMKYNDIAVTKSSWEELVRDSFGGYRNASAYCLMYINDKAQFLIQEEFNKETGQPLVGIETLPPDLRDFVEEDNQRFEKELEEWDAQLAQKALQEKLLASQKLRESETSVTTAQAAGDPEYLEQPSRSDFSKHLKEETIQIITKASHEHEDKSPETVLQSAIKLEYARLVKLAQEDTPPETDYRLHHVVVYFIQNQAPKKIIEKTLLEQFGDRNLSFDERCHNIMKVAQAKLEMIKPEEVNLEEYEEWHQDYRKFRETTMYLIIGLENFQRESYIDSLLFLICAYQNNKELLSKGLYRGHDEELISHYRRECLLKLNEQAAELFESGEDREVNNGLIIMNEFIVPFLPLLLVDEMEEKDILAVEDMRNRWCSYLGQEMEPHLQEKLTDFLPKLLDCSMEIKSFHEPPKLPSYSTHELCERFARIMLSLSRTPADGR

Experiments:
Experiment in all cases: co-IP; endogenous proteins from A-431 cells; RIPA lysate, beads coupled to USP25, USP28 or ∆Np63 antibodies, non-specific rabbit IgG as control; immunoblot
[1] = target: T1, endogenous ∆Np63 (human (endogenous in A-431)) (UniProt Q9H3D4)
T1 sequence: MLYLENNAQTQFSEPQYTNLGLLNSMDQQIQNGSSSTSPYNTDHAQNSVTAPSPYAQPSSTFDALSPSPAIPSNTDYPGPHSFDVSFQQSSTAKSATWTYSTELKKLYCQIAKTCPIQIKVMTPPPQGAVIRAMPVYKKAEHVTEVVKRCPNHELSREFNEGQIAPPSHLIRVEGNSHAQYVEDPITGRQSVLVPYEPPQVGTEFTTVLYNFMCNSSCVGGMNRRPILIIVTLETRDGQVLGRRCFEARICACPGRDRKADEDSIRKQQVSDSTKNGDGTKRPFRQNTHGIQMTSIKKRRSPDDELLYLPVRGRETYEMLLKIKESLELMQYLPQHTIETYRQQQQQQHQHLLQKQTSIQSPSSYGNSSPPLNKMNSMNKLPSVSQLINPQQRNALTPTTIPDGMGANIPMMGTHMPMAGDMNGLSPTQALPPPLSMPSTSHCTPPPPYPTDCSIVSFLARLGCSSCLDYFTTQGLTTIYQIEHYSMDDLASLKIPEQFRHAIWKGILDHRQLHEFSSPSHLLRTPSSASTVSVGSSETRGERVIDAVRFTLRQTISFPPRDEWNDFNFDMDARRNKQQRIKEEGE

[2] = target: endogenous USP28 (human (endogenous in A-431)) (UniProt Q96RU2)
[3] = target: endogenous USP25 (human (endogenous in A-431)) (UniProt Q9UHP3)

- binding [1]: no binding
Molecule: endogenous USP25 (from UniProt Q9UHP3 1-1055) (enzyme)

- binding [2]: binds
- binding [3]: no binding
B1: endogenous ∆Np63 (protein, UniProt Q9H3D4-2 1-586)
chain: T1 sequence
